Where “and” joins values, the source holds several entries; their conditions need not be identical. Identical values can stand only once. The source gives many values for each of these; only a part stands here.
Biological target: T1, wt IDH1 (Homo sapiens, UniProt O75874)
T1 construct: made in house; host or cells: Escherichia coli BL21(DE3) pLyS
Assay: Absorbance assay (NADPH, 340 nm): kinetics of oxidative reaction (isocitrate to 2OG) by wt IDH1
Assay type: biochemical
Protocol: All experiments were performed in (at least) triplicate.
KM values were determined by varying concentrations of the substrate/cofactor under investigation while maintaining the concentrations of other components using standard conditions. […] Graphs were fitted using GraphPad Prism to obtain kinetic parameters.

By UniProt entry, the sequences of proteins in these tests, tags left out. Residues count along the entry.
UniProt O75874, 2-414: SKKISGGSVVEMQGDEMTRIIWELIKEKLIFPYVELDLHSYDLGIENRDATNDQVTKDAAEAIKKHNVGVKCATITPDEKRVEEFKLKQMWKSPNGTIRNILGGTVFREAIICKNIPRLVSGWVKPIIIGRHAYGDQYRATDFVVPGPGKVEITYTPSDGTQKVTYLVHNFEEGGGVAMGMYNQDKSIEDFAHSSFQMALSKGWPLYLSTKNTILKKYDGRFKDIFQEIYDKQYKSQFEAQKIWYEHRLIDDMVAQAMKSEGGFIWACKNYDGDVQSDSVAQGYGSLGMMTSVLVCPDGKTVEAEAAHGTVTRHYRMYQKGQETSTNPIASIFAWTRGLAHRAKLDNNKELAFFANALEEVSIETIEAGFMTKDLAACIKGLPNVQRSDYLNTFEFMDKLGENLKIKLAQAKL

In the case of `NC(=O)c1ccc[n+](C2OC(COP(=O)(O)OP(=O)([O-])OCC3OC(n4cnc5c(N)ncnc54)C(OP(=O)(O)O)C3O)C(O)C2O)c1` (centres unmarked) [NADP^+], the Velocity (Fig. S2b, [NADP+] 4.6875 μM) is reported as 0.03088 µM/s and 0.02351 µM/s and 0.02544 µM/s, the Velocity (Fig. S3b, MnCl2 as metal, [NADP+] 300 μM) is reported as 0.3195 µM/s and 0.3577 µM/s and the Velocity (Fig. S3b, MnCl2 as metal, [NADP+] 600 μM) is reported as 0.3169 µM/s and 0.3403 µM/s and 0.3214 µM/s. The Velocity (Fig. S3b, MnCl2 as metal, [NADP+] 1200 μM) was 0.3459 µM/s and 0.3409 µM/s and 0.3451 µM/s and the Velocity (Fig. S3b, MnCl2 as metal, [NADP+] 2400 μM) was 0.3432 µM/s and 0.3124 µM/s and 0.328 µM/s.

Source: publication PMC8560763, “Roles of metal ions in the selective inhibition of oncogenic variants of isocitrate dehydrogenase 1” (Communications Biology, 2021)
